Experimental data published in patent US20060276440A1, “Treatment of inflammatory disorders” (priority 2005, published 2006).
At least one structure is not confirmed: it was looked up by name or label, or the drawing left a doubt.

Key:
OSM signaling = test: […] 4A1 cell line (A549) OSM-stimulated luciferase reporter assay; format: cell-based, human; conditions: 4A1 cells; FIG. 10A-E
Description: Cell line 4A1 was established in A549 cells (a human lung cancer cell line) using BV32, a vector that carries both the luciferase and GFP reporters. Assay development was performed to optimize the conditions of the OSM-response in the 4A1 […]® line.
Reporter activities of Sentinel® clones were measured using the Steady-Glo® Luciferase assay system (Promega, Madison, Wis.), according to the manufacturer's instructions, and were normalized to cell numbers based on nucleic acid quantification (CyQuant® cell proliferations assay, Molecular Probes/Invitrogen, Carlsbad, Calif.). In order to identify potential anti-inflammatory compounds, the OSM-responding Sentinel® clone 4A1 was used for a library screen of approximately 1800 compounds.

[1] = test system: murine collagen-induced arthritis (CIA) model; test: Murine collagen-induced arthritis (CIA) model; format: in vivo; conditions: 0.2 mg/kg daily s.c., positive control
Description: Male 6-8 week old B10RIII (Jackson Labs) mice were immunized at day 0, followed by a booster immunization on day 15.
Clinical scores started on day 16 and continued daily. Mice were sacrificed on day 26. Clinical scores of mouse paws were based on a 0-5 scoring system with 0 being normal and 5 being the most severe edema and erythema conditions. ELISAs on collected plasma samples were performed using commercial kits: IL-1β (R & D systems, Minneapolis, Minn.), anti-collagen II (Chondrex, Redmont, Wash.), and Rheumatoid Factors (IgG) (Alpha Diagnostic International, San Antonio, Tex.).
CA4 at 50, 33, and 0 (vehicle) mg/ml in osmotic pumps (0.5 ul/hr; equivalent to 25, 16 and 0 mg/kg/day) was administered subcutaneously to murine collagen-induced arthritis model usin ghte B10RIII strain 12 days after the 1st immunization (day 0) of type II collagen. […] Dexamethasone at 0.2 mg/kg was injected daily subcutaneously as a positive control.

| SMILES | effect of pathway inhibitors on OSM-stimulated reporter activity (OSM signaling) | knee joint histopathology [1] |
| --- | --- | --- |
| Oc1c2ccccc2c2c3c(cccc13)N=N2 [SP600125, reference compound] | inhibited the reporter activity in a dose-dependent manner |  |
| C[C@@H]1C[C@H]2[C@@H]3CCC4=CC(=O)C=C[C@]4(C)[C@@]3(F)[C@@H](O)C[C@]2(C)[C@@]1(O)C(=O)CO [dexamethasone, reference compound] |  | near complete joint protection |
